For 2 molecules, binding results are on record in paper PMC13229380.

Results are given in words; binding and its absence hold for the method and conditions named. In cells and extracts the contact can be indirect. Binding calls can cover weak binding; strength is not graded here.

This assay concerns the target m54.5p, C-terminally V5-tagged (m54.5p-V5) (murine cytomegalovirus (MCMV)). Nature of the assay: co-IP; V5 Co-IP (V5-Trap magnetic agarose beads) from lysates of m54.5p-V5-3T3 cells, with m54.5p-FLAG-3T3 cells as control; MCMV-infected or uninfected; immunoblot for endogenous partners. For orientation: Immunoblotting shows a protein as a band on a membrane.

B1: PP6R3 (protein, UniProt Q922D4 1-844)
chain: MFWKFDLHSSSHIDTLLEREDVTLKELMDEEDVLQECKAQNRKLIEFLLKAECLEDLVSFIIEEPPQDMDEKIRYKYPNISCELLTSDVSQMNDRLGEDESLLMKLYSFLLNESPLNPLLASFFSKVLSILISRKPEQIVDFLKKKRDFVDLIIKHIGTSAIMDLLLRLLTCIEPPQPRQDVLNWLNEERIIQRLVEIVHPSQEEDRHSNASQSLCEIVRLSRDQMLQVQNSTEPDPLLATLEKQEIIEQLLSNIFHKEKNESAIVSAIQILLTLLETRRPTFEGHIEICPPGMSHSACSVNKSVLEAIRGRLGSFHELLLEPPKKSVMKTTWGILDPPVGNTRLNVIRLISSLLQTNTSSINGDLMELNSIGVILDMFFKYTWNNFLHTQVEICIALILASPFENAENGTITDQDSTGDNLLLKHLFQKCQLIERILEAWDTNEKKQAEGGRRHGYMGHLTRIANCIVHSTDKGPNSALVQQLIKDLPDEVRERWETFCTNSLGETNKRNTVDLAFSDYQMQQMTSNFIDQFGFNDEKFADQDDIGNVSFDRVSDINFTLNTNESGNIALFEACCKERIQQFDDGGSDEEDIWEEKHIAFTPESQRRSSSGSTDSEESTDSEEEDGAKQDLFESSSANTEDKMEVDLNEPPTWSANFDVPMETTHGAPLDSVGSDVWSTEEPMPTKETGWASFSEFTSSLSTKESLRSNSPVEMETSTESVDPLTPGAAALATQPEAPGSMAMEASSDGEEDAESTDKVTETVMNGGMKETLSLTVDAKTETAVFKSEEEKLSTSQDAACKDAEETPEPAEAKCTAPLTPSSSPEQRTDQPSMPSDPSVNGPV
Regarding B1, the binding result is reported as “binds”.

B2: protein phosphatase-6 catalytic domain (PP6C) (enzyme, UniProt Q9CQR6 1-305)
chain: MAPLDLDKYVEIARQCKYLPENDLKRLCDYVCDLLLEESNVQPVSTPVTVCGDIHGQFYDLCELFRTGGQVPDTNYIFMGDFVDRGYYSLETFTYLLALKAKWPDRITLLRGNHESRQITQVYGFYDECQTKYGNANAWRYCTKVFDMLTVAALIDEQILCVHGGLSPDIKTLDQIRTIERNQEIPHKGAFCDLVWSDPEDVDTWAISPRGAGWLFGAKVTNEFVHINNLKLICRAHQLVHEGYKFMFDEKLVTVWSAPNYCYRCGNIASIMVFKDVNTREPKLFRAVPDSERVIPPRTTTPYFL
For the molecule B2, the binding entry is reported as “binds”.
